Data as given in article PMC4718636.
These are yes or no findings as the source states them, for the method shown. Some binding calls cover weakened binding; strength is not graded here. Tags and fused reporters may be left off the sequences shown.

Target: GST-hAgo2 (human Argonaute2) (human), Q9UKV8
Assay: pull-down; pulldown assays shown only in Figure I of the S1 Supporting Information File; format not given; both purified
Details: remark: other sources report otherwise

binding: binds
B1: His-hTRBP (human TAR RNA-binding protein), purified under native conditions, Q15633 1-366 (protein)
chain: MSEEEQGSGTTTGCGLPSIEQMLAANPGKTPISLLQEYGTRIGKTPVYDLLKAEGQAHQPNFTFRVTVGDTSCTGQGPSKKAAKHKAAEVALKHLKGGSMLEPALEDSSSFSPLDSSLPEDIPVFTAAAAATPVPSVVLTRSPPMELQPPVSPQQSECNPVGALQELVVQKGWRLPEYTVTQESGPAHRKEFTMTCRVERFIEIGSGTSKKLAKRNAAAKMLLRVHTVPLDARDGNEVEPDDDHFSIGVGSRLDGLRNRGPGCTWDSLRNSVGEKILSLRSCSLGSLGALGPACCRVLSELSEEQAFHVSYLDIEELSLSGLCQCLVELSTQPATVCHGSATTREAARGEAARRALQYLKIMAGSK
